Test results as given in PMC3346761, “Insight into the Assembly Properties and Functional Organisation of the Magnetotactic Bacterial Actin-like Homolog, MamK” (PLoS ONE, 2012).
These are yes or no findings as the source states them, for the method shown. Some entries that bind do so weakly or less than the wild type. Where a sequence is shown, tags or fusion partners need not be part of it.

Columns and labels:
[1] = molecular target: MamK from Magnetospirillum gryphiswaldense MSR-1, C-terminal poly-histidine-tagged (Magnetospirillum gryphiswaldense MSR-1) (UniProt Q6NE59); assay: native gel or EMSA; 7.5% native polyacrylamide gel after incubation at room temperature with divalent cations, without ATP; data not shown; both purified
[2] = molecular target: MamK from Magnetospirillum gryphiswaldense MSR-1, C-terminal poly-histidine-tagged (Magnetospirillum gryphiswaldense MSR-1) (UniProt Q6NE59); assay: light scattering (90° optics, time course); polymerisation started with 0.2 mM ATP in polymerisation buffer (10 mM imidazole, 1 mM MgCl2, 0.1 mM EGTA, 20 mM KCl) pH 7.0, 30°C, 2-20 µM MamK, 400 nm, 1000 s; high salt (100 mM NaCl or KCl) lowered the signal at least 150-fold; both purified
[3] = molecular target: MamK from Magnetospirillum gryphiswaldense MSR-1, C-terminal poly-histidine-tagged (Magnetospirillum gryphiswaldense MSR-1) (UniProt Q6NE59); assay: co-sedimentation; MamK dialysed against polymerisation buffer with Mg2+, no ATP, ultracentrifugation at 90,000 g, 4°C; both purified
[4] = molecular target: MamK from Magnetospirillum gryphiswaldense MSR-1, C-terminal poly-histidine-tagged (Magnetospirillum gryphiswaldense MSR-1) (UniProt Q6NE59); assay: negative-stain transmission electron microscopy; purified MamK (1 mg/ml) in polymerisation buffer with 0.2 mM ATγP, 30°C, 15 or 30 min, 2% uranyl acetate; both purified
[5] = molecular target: MamK from Magnetospirillum gryphiswaldense MSR-1, C-terminal poly-histidine-tagged (Magnetospirillum gryphiswaldense MSR-1) (UniProt Q6NE59); assay: dynamic light scattering (size distribution); hydrodynamic diameters with Mg2+ and ATP; 1, 2, 4 and 6 µM at 30°C; 30, 45 and 65°C; both purified

Measured: binding

B1: MamK from Magnetospirillum gryphiswaldense MSR-1, C-terminal poly-histidine-tagged (natural protein, UniProt Q6NE59 1-360, looked up)
chain: MWIDLLARERSDKMSEGEGQAKNRLFLGIDLGTSHTAVMTSRGKKFLLKSVVGYPKDVIGLKLLGRPYVVGDEAFEMRSYLDLRYPLQDGVLSEISDRDIEVARHLLTHVVKSAEPGANDEICAVIGVPARASGANKALLLKMAQEVVHTALVVSEPFMVGYGLDKLNNTIIVDIGAGTTDICALKGTVPGPEDQVTLTKAGNYLDERLQNAILERHPELQMNTNVACAVKEQFSFVGARGEAATFEFRAAGKPVRCDVTESVKIACEALMPDIIESIEILLRSFQPEYQATVLQNIVFAGGGSRIRGLAAYVKDKLRPFGNADVTCVKDPTFDGCRGALRLAEELPPQYWCQLGDVSGQ
notes: MamK, actin-like protein of M. gryphiswaldense MSR-1; mamK gene (1083 bp) cut from a MamK-pGEM construct with SalI/EcoRI and sub-cloned into pET29b; purified as a 42 KDa protein; No cleavage of the tag is described; also called His-MamK; His-tagged MamK
binds: [1] | [2] | [3] | [4] | [5]
